These are yes or no findings as the source states them, for the method shown. In cells and extracts the contact can be indirect. Some entries that bind do so weakly or less than the wild type.
Biological target: receptor for advanced glycation end-product (RAGE), overexpressed in HUVECs (UniProt Q15109)
Experiment: co-IP; S100A7 protein incubated with RAGE-overexpressing HUVECs, then co-immunoprecipitation; only the binder purified

The chains behind the UniProt entries cited, without tags or fusion partners. Residues count along the entry.
UniProt Q15109, residues 23-404: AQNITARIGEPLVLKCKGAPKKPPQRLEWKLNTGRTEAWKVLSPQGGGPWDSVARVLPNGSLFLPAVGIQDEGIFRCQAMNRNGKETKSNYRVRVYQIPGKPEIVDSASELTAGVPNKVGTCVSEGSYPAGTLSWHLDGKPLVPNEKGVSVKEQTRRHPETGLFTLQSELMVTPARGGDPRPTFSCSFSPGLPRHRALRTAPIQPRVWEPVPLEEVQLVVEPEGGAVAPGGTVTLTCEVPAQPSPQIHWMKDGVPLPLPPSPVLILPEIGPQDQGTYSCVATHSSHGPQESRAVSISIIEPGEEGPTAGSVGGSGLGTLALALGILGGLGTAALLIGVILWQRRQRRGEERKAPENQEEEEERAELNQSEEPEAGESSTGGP

binding: binds
B1: recombinant human S100A7 protein (ligand, UniProt P31151 1-101)
chain: MSNTQAERSIIGMIDMFHKYTRRDDKIEKPSLLTMMKENFPNFLSACDKKGTNYLADVFEKKDKNEDKKIDFSEFLSLLGDIATDYHKQSHGAAPCSGGSQ
